According to PubChem BioAssay AID493014 (National Center for Advancing Translational Sciences (NCATS), 2011):
This is one part of the list. Shown are side measurements of this screen, not its main read-out; they come without a call. Most of these compounds were active or inconclusive in the main read-out, so they are no random draw. Potencies come from curve fits of mixed quality, noted in brackets.

Test: qHTS Assay to Find Inhibitors of Chronic Active B-Cell Receptor Signaling
Conditions: ABC-DLBCL IkBa-CBG/CBR reporter, luminescence ratio (green luciferase fused to IkBa over red control in TMD8 lymphoma cells), 4 h
Outline: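 Doxycycline induced both beetle luciferases in TMD8 lymphoma cells; IKK-driven degradation limits the IkappaBalpha-fused green signal, while red luminescence normalises for cell number and nonspecific effects. Compounds tested up to 46 uM, 4 hrs.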

[1] = measured here: CBR red luminescence, cell number

With `COc1ccc2nc(NC(=O)c3ccc([N+](=O)[O-])o3)sc2c1` the AC50 [1] was 3.98 µM [falling, full curve].

In the case of `Cc1cnc(NC(=O)CSc2nc3ccccc3s2)s1`, the AC50 [1] is reported as 23.1 µM [falling, partial curve, poor fit].

In the case of `O=C(COC(=O)c1ccccc1[N+](=O)[O-])c1ccc(C2CCCCC2)cc1`, the AC50 [1] is reported as 2.82 µM [rising, single point].

With `CCOC(=O)C(C)NC(=O)CCc1nnc2ccc(N3CCCCC3)nn12` (stereo unspecified) the AC50 [1] was 0.355 µM [rising, full curve, poor fit].

With `O=C(COC(=O)[C@@H]1CC(O)CN1S(=O)(=O)c1ccc([N+](=O)[O-])cc1)NC12CC3CC(CC(C3)C1)C2` (stereo partly specified) the AC50 [1] was 0.0517 µM [rising, full curve, poor fit].

With `Oc1c(CN2CCCCC2)cc(COCc2ccccc2)c2cccnc12` the AC50 [1] was 0.501 µM [rising, full curve].

For `Cc1ccc(/C=N/NS(=O)(=O)c2ccc([N+](=O)[O-])cc2)o1`, the AC50 [1] was 8.2 µM [rising, partial curve, poor fit].

With `O=c1c(Cc2ccc(Cl)cc2Cl)c(O)ccn1Cc1ccc(Cl)cc1` the AC50 [1] was 8.2 µM [falling, partial curve].

With `CCc1ccn2cc(-c3cc(-c4ccccc4)no3)nc2c1` the AC50 [1] was 3.55 µM [falling, partial curve, poor fit].

In the case of `CCCS(=O)(=O)N1CCC(Cc2ccc(OC)cc2)(C(=O)OCC)CC1`, the AC50 [1] is reported as 11.2 µM [rising, partial curve, poor fit].

In the case of `CC(C)CSc1nnc2[nH]c(=O)cc(N)n12`, the AC50 [1] is reported as 16.4 µM [rising, partial curve, poor fit].

For `O=C(CCCN1C(=O)/C(=C/c2ccc3c(c2)OCO3)SC1=S)Nc1cccc(C(=O)O)c1`, the AC50 [1] was 35.5 µM [rising, single point].

With `Cc1cc(Nc2ccccc2)n2nc(C)c(-c3ccccc3)c2n1` the AC50 [1] was 6.31 µM [falling, partial curve, poor fit].

With `C=CCn1c(SCc2nc3ccccc3nc2C)nnc1-c1ccoc1C` the AC50 [1] was 22.4 µM [falling, single point].

For `CC(C)C(CCNC1CCN(C)CC1)c1ccc(Cl)cc1` (stereo unspecified), the AC50 [1] was 6.31 µM [falling, partial curve, poor fit].

For `N#CC1=C(N)N(c2ccccc2)C(c2ccccc2)C1(C#N)C#N` (stereo unspecified), the AC50 [1] was 3.16 µM [rising, partial curve, poor fit] and the AC50 (measured here: IkBa-CBG green luminescence) was 3.16 µM [falling, partial curve, poor fit].

With `O/N=C(\c1ccc(Cl)cc1)c1cc2ccccc2o1` the AC50 [1] was 7.31 µM [rising, single point].

With `CCc1nc(NCC(C)C)c(C#N)c2c1COC(C)(C)C2` the AC50 [1] was 22.4 µM [falling, single point].

For `O=C(NC(Nc1nc2ccc([N+](=O)[O-])cc2s1)(C(F)(F)F)C(F)(F)F)c1ccccc1`, the AC50 [1] was 0.731 µM [falling, full curve].

In the case of `Cc1cc(C)n2nnnc2c1C#N`, the AC50 [1] is reported as 16.4 µM [rising, partial curve, poor fit].

For `Cc1cccc(-c2noc(CN(C(=O)c3c(-c4ccccc4Cl)noc3C)C(C)C)n2)c1`, the AC50 [1] was 14.1 µM [falling, single point].

With `O=S(=O)(c1cc(C(F)(F)F)ccc1Cl)N1CCN(c2ccccn2)CC1` the AC50 [1] was 35.5 µM [rising, single point].

For `Cc1nc(NC(=O)c2ccccc2)sc1-c1csc(Nc2cccc(F)c2)n1`, the AC50 [1] was 5.62 µM [falling, partial curve, poor fit].

With `CC1(C)CC(CCN(Cc2ccccc2)C(=O)c2ccco2)(c2ccccc2)CCO1` (stereo unspecified) the AC50 [1] was 4.11 µM [falling, partial curve, poor fit].

In the case of `O=[N+]([O-])c1cccc(S(=O)(=O)c2ccc(NCCO)c([N+](=O)[O-])c2)c1`, the AC50 [1] is reported as 0.708 µM [falling, partial curve, poor fit].

For `CSc1cc(-c2ccccc2)n(Cc2ccc(Cl)cc2Cl)c(=O)c1C#N`, the AC50 [1] was 1.03 µM [rising, partial curve, poor fit].

With `CC(=O)N(c1ccccc1)c1nnc(-c2cnc(C)cn2)s1` the AC50 [1] was 0.282 µM [rising, full curve, poor fit].

With `CCCCNC(=O)CC1N=C2c3ccccc3N=C(SCC(=O)Nc3ccccc3OC)N2C1=O` (stereo unspecified) the AC50 [1] was 14.1 µM [falling, partial curve, poor fit].

In the case of `COc1ccccc1N(Cc1cc(=O)[nH]c2ccccc12)C(=O)C(C)C`, the AC50 [1] is reported as 14.1 µM [falling, single point].

In the case of `O=C(Nc1ccc(O)cc1C(=O)O)c1cccs1`, the AC50 [1] is reported as 35.5 µM [falling, single point].

With `COc1cc(NC(=O)CSc2ncnc3scc(-c4ccccc4)c23)c(C(=O)O)cc1OC` the AC50 [1] was 11.2 µM [rising, partial curve, poor fit].

For `Cc1ccc(NC(=O)C2CCCN(C(=O)c3ccc(Cl)cc3)C2)cc1S(=O)(=O)N1CCOCC1` (stereo unspecified), the AC50 [1] was 17.8 µM [rising, partial curve, poor fit].

With `O=C(COc1ccc(Br)cc1CNC1CCCC1)Nc1ccccc1` the AC50 [1] was 31.6 µM [falling, single point].

In the case of `COc1ccc(N2C(=O)CC(Sc3nnnn3-c3ccc(F)cc3)C2=O)cc1` (stereo unspecified), the AC50 [1] is reported as 11.2 µM [falling, partial curve].

In the case of `CCOC(=O)N1CCC(NC(=O)c2cc3c(=O)[nH]c4ccccc4c3n2C)CC1`, the AC50 [1] is reported as 2.82 µM [rising, full curve, poor fit].

In the case of `COCCNC(=S)N1CCCN(c2nc3cc(C)ccc3cc2C#N)CC1`, the AC50 [1] is reported as 1.26 µM [rising, full curve, poor fit].

For `COc1cc2c(cc1OC)CN(S(C)(=O)=O)CC2`, the AC50 [1] was 6.51 µM [falling, single point].

In the case of `O=C(Nc1ccc(S(=O)(=O)N2CCCCCC2)cc1)c1c(F)cccc1F`, the AC50 [1] is reported as 35.5 µM [falling, single point].

With `O=C(N1CCOCC1)N1CCN(c2nc(-c3ccccc3)cs2)CC1` the AC50 [1] was 0.631 µM [rising, partial curve, poor fit].

In the case of `C=CCNc1nnc(SCC(=O)N2CCCCC2)c2ccccc12`, the AC50 [1] is reported as 28.2 µM [rising, single point].
